From article doi:10.1101/498196 (bioRxiv, 2018)
No constants are given. Whether binding was seen depends on the method and setting. Blank lines part the entries; values can stand above or below the substance they belong to.

The chains behind the UniProt entries cited, without tags or fusion partners. Where a name states a change or a piece, a line headed by the entry shows the natural chain unless it says otherwise. A line that says so, or that is headed by a name, gives the form on record, which may keep a tag or linker.
UniProt Q08174: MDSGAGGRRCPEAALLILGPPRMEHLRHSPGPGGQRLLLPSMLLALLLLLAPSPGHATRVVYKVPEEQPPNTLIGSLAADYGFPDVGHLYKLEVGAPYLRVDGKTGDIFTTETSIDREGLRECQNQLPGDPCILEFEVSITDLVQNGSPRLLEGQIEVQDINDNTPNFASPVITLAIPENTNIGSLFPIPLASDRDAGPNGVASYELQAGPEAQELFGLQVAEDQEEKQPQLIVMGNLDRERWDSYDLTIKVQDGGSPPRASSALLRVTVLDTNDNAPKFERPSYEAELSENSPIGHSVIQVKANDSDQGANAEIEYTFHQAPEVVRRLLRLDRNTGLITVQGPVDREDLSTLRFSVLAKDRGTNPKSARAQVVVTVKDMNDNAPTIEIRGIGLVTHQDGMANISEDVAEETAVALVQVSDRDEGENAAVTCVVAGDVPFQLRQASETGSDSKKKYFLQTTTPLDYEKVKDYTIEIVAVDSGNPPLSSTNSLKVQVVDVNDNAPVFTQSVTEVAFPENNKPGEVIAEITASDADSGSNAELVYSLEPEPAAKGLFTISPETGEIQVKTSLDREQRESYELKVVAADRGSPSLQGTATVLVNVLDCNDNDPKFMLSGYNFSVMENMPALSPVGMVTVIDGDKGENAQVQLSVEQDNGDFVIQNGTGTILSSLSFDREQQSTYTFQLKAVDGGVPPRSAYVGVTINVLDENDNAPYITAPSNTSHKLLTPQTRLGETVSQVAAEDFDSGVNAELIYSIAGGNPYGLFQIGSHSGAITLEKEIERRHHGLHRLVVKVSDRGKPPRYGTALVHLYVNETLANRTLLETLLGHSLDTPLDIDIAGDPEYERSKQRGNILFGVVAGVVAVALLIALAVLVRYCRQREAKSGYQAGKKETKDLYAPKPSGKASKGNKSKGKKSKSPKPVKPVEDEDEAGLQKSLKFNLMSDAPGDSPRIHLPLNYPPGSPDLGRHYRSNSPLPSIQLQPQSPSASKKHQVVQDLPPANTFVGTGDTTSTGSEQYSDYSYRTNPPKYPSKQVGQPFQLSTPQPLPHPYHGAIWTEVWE
PCDH1 EC1-4 C375S K398E (Q08174, form named): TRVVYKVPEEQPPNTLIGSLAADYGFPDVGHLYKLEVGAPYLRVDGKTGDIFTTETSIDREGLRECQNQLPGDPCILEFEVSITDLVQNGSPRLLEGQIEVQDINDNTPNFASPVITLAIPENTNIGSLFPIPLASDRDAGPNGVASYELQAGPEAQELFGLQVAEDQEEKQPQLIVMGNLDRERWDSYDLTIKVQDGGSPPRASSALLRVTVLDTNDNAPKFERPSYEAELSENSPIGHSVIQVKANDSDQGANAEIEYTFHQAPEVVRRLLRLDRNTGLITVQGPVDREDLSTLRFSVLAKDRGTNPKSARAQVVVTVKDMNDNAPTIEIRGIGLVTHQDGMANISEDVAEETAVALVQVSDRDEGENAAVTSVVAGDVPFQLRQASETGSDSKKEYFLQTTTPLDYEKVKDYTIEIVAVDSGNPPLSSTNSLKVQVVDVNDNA
PCDH1 EC1-7Fc K398E (Q08174, form named): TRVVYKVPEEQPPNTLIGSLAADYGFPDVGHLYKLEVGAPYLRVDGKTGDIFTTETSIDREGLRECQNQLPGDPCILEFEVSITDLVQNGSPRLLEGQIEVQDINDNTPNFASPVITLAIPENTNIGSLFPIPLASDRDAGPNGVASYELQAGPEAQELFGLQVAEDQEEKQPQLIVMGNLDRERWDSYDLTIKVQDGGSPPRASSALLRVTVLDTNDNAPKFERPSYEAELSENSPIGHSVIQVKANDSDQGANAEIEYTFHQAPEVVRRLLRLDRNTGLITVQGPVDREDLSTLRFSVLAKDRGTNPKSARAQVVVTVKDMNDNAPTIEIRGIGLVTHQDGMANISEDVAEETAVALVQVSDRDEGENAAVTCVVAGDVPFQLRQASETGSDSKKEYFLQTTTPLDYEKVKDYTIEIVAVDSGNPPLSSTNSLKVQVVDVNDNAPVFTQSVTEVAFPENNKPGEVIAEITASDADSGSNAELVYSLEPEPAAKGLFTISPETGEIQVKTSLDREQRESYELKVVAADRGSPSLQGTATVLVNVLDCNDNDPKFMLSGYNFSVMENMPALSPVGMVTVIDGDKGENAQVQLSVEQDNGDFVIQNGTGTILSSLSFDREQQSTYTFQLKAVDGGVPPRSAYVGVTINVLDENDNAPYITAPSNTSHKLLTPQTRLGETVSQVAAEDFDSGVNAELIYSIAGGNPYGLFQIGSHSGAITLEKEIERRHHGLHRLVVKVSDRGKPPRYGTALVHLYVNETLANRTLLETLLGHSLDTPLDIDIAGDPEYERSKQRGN

What was measured:
[1] = target: PCDH1 EC1-4 C375S K398E (human) (UniProt Q08174); experiment: AUC
PCDH1 EC1-4Fc (human) = PCDH1 EC1-4Fc (human) (UniProt Q08174); experiment: bead aggregation assay
PCDH1 EC1-7Fc (human) = PCDH1 EC1-7Fc (human) (UniProt Q08174); experiment: bead aggregation assay
[2] = target: PCDH1 EC1-7Fc K398E (human) (UniProt Q08174); experiment: bead aggregation assay

binding [1]: no binding
Substance: PCDH1 EC1-4 C375S K398E (from UniProt Q08174 58-503) (domain or fragment)

Substance: PCDH1 EC1-4Fc (from UniProt Q08174 58-503) (Fc fusion)
binding (PCDH1 EC1-4Fc (human)): no binding (condition: with 2 mM EDTA)

Substance: PCDH1 EC1-7Fc (from UniProt Q08174 58-852) (Fc fusion)
binding (PCDH1 EC1-7Fc (human)): no binding (condition: with 2 mM EDTA)

Substance: PCDH1 EC1-7Fc K398E (from UniProt Q08174 58-852) (Fc fusion)
binding [2]: no binding
